These are yes or no findings as the source states them, for the method shown. Binding seen in cells or lysates may run through a third protein. Binding calls can cover weak binding; strength is not graded here.

Amino acid sequences for entries named in this document (tags omitted). A change or cut given only in a name is not applied to a line headed by its entry.
UniProt Q12522: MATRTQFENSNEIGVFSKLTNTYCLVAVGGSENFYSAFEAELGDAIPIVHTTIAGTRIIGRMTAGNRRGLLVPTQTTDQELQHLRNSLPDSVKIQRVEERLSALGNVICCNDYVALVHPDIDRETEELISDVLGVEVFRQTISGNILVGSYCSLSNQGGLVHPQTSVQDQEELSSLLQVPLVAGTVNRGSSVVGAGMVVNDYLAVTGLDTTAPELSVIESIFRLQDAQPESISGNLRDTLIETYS
UniProt P05748: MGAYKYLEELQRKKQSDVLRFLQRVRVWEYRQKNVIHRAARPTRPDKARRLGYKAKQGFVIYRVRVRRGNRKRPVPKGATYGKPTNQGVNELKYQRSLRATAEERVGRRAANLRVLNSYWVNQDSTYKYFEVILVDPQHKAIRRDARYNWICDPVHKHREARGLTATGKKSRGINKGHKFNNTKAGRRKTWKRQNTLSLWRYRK

The target in assay [1] is T1, Kre35-TAP (S. cerevisiae) (UniProt P53145).
T1 sequence: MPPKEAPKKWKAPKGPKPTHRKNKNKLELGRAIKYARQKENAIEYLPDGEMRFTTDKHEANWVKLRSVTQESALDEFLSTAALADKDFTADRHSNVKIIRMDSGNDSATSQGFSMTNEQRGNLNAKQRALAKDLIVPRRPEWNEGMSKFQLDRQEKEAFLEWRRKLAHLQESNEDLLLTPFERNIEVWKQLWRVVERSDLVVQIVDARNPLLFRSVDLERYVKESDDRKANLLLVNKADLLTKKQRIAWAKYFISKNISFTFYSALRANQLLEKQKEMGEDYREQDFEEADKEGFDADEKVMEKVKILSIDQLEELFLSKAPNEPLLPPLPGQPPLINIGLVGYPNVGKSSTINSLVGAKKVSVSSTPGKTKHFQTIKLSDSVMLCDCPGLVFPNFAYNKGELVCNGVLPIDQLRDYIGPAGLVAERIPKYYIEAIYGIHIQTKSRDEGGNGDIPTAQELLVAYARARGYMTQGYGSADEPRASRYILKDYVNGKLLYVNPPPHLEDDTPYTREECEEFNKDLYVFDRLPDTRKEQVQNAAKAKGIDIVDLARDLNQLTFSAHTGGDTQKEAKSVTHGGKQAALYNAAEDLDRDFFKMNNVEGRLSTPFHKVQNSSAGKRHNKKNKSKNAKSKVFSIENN
The experiment in a line: co-IP; Kre35-TAP retrieved with cytoplasmic pre-60S particles from yeast lysate on IgG sepharose, eluted with TEV protease, western blot; cells expressing or depleted of Mak5 (doxycycline); particle amounts normalised to Rpl15. In general terms: In western blotting, separated proteins are transferred to a membrane and probed.

Assay [2] deals with TAP-tagged Tif6 (S. cerevisiae) (UniProt Q12522). In words: co-IP; Tif6-TAP retrieved with late pre-60S particles from yeast lysate on IgG sepharose, eluted with TEV protease, western blot; cells expressing (Gal) or depleted of (Glu) Spb4; particle amounts normalised to Tif6 and Rpl15.

With Rpl15 (from UniProt P05748), the binding entry in assay [1] and in assay [2] was “binds” in each case.

The values are drawn from article PMC6300602.
